Results: PubChem BioAssay AID651595 (National Center for Advancing Translational Sciences (NCATS), 2012)
Fewer than 10 of roughly 1,100 compounds were called active. About 6% were inconclusive and are not listed. Calls follow the shape of the dose curve; as a rule, active = well fitted cell-killing curve with a large enough effect; inconclusive = small, poorly fitted or top-dose-only effect; inactive = flat fitted curve, though single readings scatter. Some of the results follow.

assay: qHTS of Nrf2 Activators: Hit Validation in Cytotox Assay; conditions: Cell viability counter-screen for Nrf2 activator hits; series mostly up to 46.1 µM; activity change, negative = cytotoxicity: at the top concentration;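 also: compound exposure lasted 24 hours before the ATP readout; 0% is about no effect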
Method in brief: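 Intracellular ATP measured with CellTiter-Glo luminescence (30 min, room temperature) as a viability read-out. Cells: AREc32_fluc, cultured overnight before 24 h compound exposure at 7 concentrations, 37 °C; activity here marks cytotoxicity.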

| Compound | activity change, negative = cytotoxicity | Potency |
| --- | --- | --- |
| Cc1cc(N2CCOCC2)n2nc(-c3cccc(F)c3)cc2n1 | inactive: -13.4% |  |
| Fc1c(F)c(C(F)(F)F)c(F)c(F)c1N/N=C\c1cccs1 | inactive: -28.7% |  |
| COC(=O)c1ccccc1NC(=O)COCc1cc(-c2cccs2)on1 | inactive: -21.2% |  |
| Nc1ccccc1N1C(=O)c2cccc3cccc(c23)C1=O | inactive: 6.65% |  |
| N/C(=N\OC(=O)c1cccc2ccccc12)c1cccnc1 | inactive: 3.66% |  |
| Cn1c(=O)c(C(=O)NNC(=O)c2ccccc2F)c(O)c2ccccc21 | inactive: -4.83% |  |
| N#C/C(=C\c1cccc([N+](=O)[O-])c1)c1ccccn1 | inactive: 5.15% |  |
| CC(/C=C/c1ccco1)=N\NC(=O)CNc1ccc2ccccc2c1 | inactive: -2.77% |  |
| COc1ccc(O)c(-c2cc(-c3ccc(F)cc3)n[nH]2)c1 | inactive: 2.95% |  |
| Cc1ccc(-c2nc(NCc3ccco3)c3ccccc3n2)cc1 | inactive: -1.85% |  |
| O=[N+]([O-])c1ccccc1C=CC=NN=Cc1ccccc1O | inactive: -2.17% |  |
| Cc1nc(C)c(C(=O)N/N=C/c2ccco2)s1 | inactive: 7.03% |  |
| CSc1nsc(SC)c1NC(=O)Nc1ccccn1 | inactive: -2.47% |  |
| COc1ccccc1NC(=O)/C=C\c1ccco1 | inactive: 2.45% |  |
| O=C(Nc1cccnc1)C1(F)C(F)(F)C(F)(F)C(F)(F)C(F)(F)C1(F)F | inactive: -2.35% |  |
| Cc1ccc(S(=O)(=O)c2nc(S(C)(=O)=O)sc2N2CCC(O)CC2)cc1 | inactive: 3.03% |  |
| Clc1ccc(C=Cc2ccccn2)c(Cl)c1 | inactive: -2.5% |  |
| Cc1ccccc1NC(=O)/C(C#N)=C\c1ccsc1 | inactive: -2.53% |  |
| CSc1ccc(-c2cc(=O)c3ccccc3o2)cc1 | inactive: 1.34% |  |
| O=C(NC(=S)Nc1cc([N+](=O)[O-])ccc1Cl)c1ccccc1 | inactive: 2.33% |  |
| Cc1nc(-c2ccccn2)sc1C(=O)Nc1ccc(F)cc1 | inactive: 7.45% |  |
| COc1cccc(C(=O)Oc2ccccc2/C=C\C(=O)c2cc3ccccc3o2)c1 | inactive: -28.6% |  |
| O=[N+]([O-])c1ccccc1N/N=C/c1c[nH]c2ccccc12 | inactive: -6% |  |
| Cc1[nH]c2ccccc2c1N=Nc1ccccc1F | inactive: -1.48% |  |

4 entries already listed, arranged by number of heavy atoms, largest number first.

| Compound | activity change, negative = cytotoxicity | Potency |
| --- | --- | --- |
| Cc1ccc(S(=O)(=O)c2nc(S(C)(=O)=O)sc2N2CCC(O)CC2)cc1 | inactive: 3.03% |  |
| O=[N+]([O-])c1ccccc1C=CC=NN=Cc1ccccc1O | inactive: -2.17% |  |
| CSc1nsc(SC)c1NC(=O)Nc1ccccn1 | inactive: -2.47% |  |
| Cc1nc(C)c(C(=O)N/N=C/c2ccco2)s1 | inactive: 7.03% |  |

Next part.

| Compound | activity change, negative = cytotoxicity | Potency |
| --- | --- | --- |
| C[C@H]1CCC[C@]2(C)C[C@H]3OC(=O)C(CN4CCCCCC4)[C@H]3C=C12 (stereo not given in full) | inactive: 25.1% |  |
| O=C(c1ccc(S(=O)(=O)Cc2ccccc2Cl)c([N+](=O)[O-])c1)N1CCOCC1 | inactive: 1.45% |  |
| CCOc1ccc(Br)cc1-c1noc(-c2cccs2)n1 | inactive: 3.28% |  |
| O=C(COCc1cc(-c2cccs2)on1)Nc1cc(Cl)ccc1O | inactive: 4.39% |  |
| CCC/C(=N\NC(=O)c1ccco1)c1ccc(Cl)s1 | inactive: 3.26% |  |
| CCc1nc(Nc2cccc(F)c2)c2oc3ccccc3c2n1 | inactive: -5.98% |  |
| O=C(CCCc1ccccc1)Nc1cccc([N+](=O)[O-])c1 | inactive: 3.05% |  |
| CSc1nc(N)nc(SCC(=O)c2ccccc2)c1C#N | inactive: -2.92% |  |
| O=C(Nc1ccccc1)Nc1cccc2nsnc12 | inactive: 0.0404% |  |
| COc1ccc(OC)c(C=C2CCc3ccccc3C2=O)c1 | inactive: 1.45% |  |
| Cc1ccc(NC(=O)/C=C/c2ccc([N+](=O)[O-])s2)cc1 | inactive: 3.69% |  |
| CCOc1c(Br)cc(C(N)=O)cc1OCc1ccccc1 | inactive: 5.51% |  |
| O=C(CCN1CCC(c2ccccc2)C1)c1ccc2c(c1)OCCO2 (stereo not given) | inactive: 11.4% |  |
| CCOc1ncccc1C(=O)NNC(=O)c1ccc(NS(=O)(=O)c2cccs2)cc1 | inactive: 5.04% |  |
| Cc1ccccc1C(=O)Nc1nc2c(C)csc2c(=O)s1 | inactive: -13.3% |  |
| Cc1cccc(NC(=S)NC(=O)c2ccc(Br)o2)c1 | inactive: 2.96% |  |
| Cn1c(=O)oc2cc(NC(=O)CCl)ccc21 | inactive: -15.3% |  |
| N#C/C(=C\c1ccccc1[N+](=O)[O-])c1nc(C2CC2)cs1 | inactive: 2.2% |  |
| Cc1ccc2cccc(NC(=S)NC(=O)c3ccccc3)c2n1 | inactive: -0.972% |  |
| Cc1cccc(N=C2NC(=O)S/C2=C\c2ccco2)c1 | inactive: -0.442% |  |
| Cc1ccc(-n2nc3c([n+]2[O-])CCc2c-3no[n+]2[O-])cc1 | inactive: -3.03% |  |
| O=C(COC(=O)c1cc2ccccc2cc1O)Nc1ccccc1F | inactive: -11.3% |  |
| COc1ccc(OC)c2sc(NC(=O)CCS(=O)(=O)c3ccccc3)nc12 | inactive: -0.64% |  |
| COC1=C(C)C(O)=C(C(=O)/C=C/c2ccccc2)C(=O)C1(C)C | inactive: 2.03% |  |

| Compound | activity change, negative = cytotoxicity | Potency |
| --- | --- | --- |
| COc1ccccc1C(=O)COC(=O)c1cccs1 | inactive: 7.14% |  |
| CN1CCN(CCCNC(=O)c2cc3c(=O)n(C)c4ccccc4c3s2)CC1 | inactive: -0.777% |  |
| Clc1cccc(/C=N\Nc2nccs2)c1 | inactive: 6.97% |  |
| Cc1ccc(CC2S/C(=N/N=C/c3ccco3)NC2=O)cc1 (stereo not given) | inactive: -8.32% |  |
| O=C(NC1CCCCC1)N(c1ccccc1)c1nnc(-c2cccc([N+](=O)[O-])c2)s1 | inactive: 3.91% |  |
| COc1ccc(COc2ccsc2C(=O)Nc2ccc(Cl)cc2)cc1 | inactive: -18.8% |  |
| O=[N+]([O-])c1cc(Cl)cc2c1nc(NCCO)c1ccccc12 | inactive: -0.426% |  |
| S=c1[nH]nc(-c2ccco2)n1/N=C/c1cccc(Cl)c1Cl | inactive: 3.26% |  |
| Cc1ccc(CNC(=O)c2sccc2-n2cccc2)cc1 | inactive: -0.271% |  |
| N#C/C(=C(/O)c1ccco1)c1nc2ccccc2s1 |  | inactive |
| CN(C)CCCn1c2c3ccccc3ccc2c2oc(=O)c3ccccc3c21 | inactive: -8.29% |  |
| Cc1ccc(NC(=O)c2cc(=O)c3ccccc3o2)cc1 | inactive: -3.33% |  |
| COc1ccc([N+](=O)[O-])cc1C1NN=C(c2ccccc2O)S1 (stereo not given) | inactive: -3.67% |  |
| O=C(CSc1nccc(-c2cccs2)n1)Nc1cccc(Cl)c1 | inactive: 7.52% |  |
| Cn1c(NCc2ccc3occc3c2)nc2cc(-c3cccc(C(F)(F)F)c3)sc2c1=O | inactive: -17.7% |  |
| Brc1cc(Br)c2nc(-c3cccs3)ccc2c1 | inactive: 5.71% |  |
| CCOC(=O)c1cnc(-c2ccccc2)nc1-c1ccccc1 | inactive: 9.35% |  |
| COc1ccc2oc3ccccc3c(=O)c2c1 | inactive: -0.325% |  |
| CCNc1nc(NCC)nc(N(C)/N=C/c2ccco2)n1 | inactive: 5.02% |  |
| O=C(CCN1C(=O)/C(=C/c2ccccc2)SC1=S)N1CCCCCC1 | inactive: 1.54% |  |
| O=C(N/N=C/c1ccc(-c2cccc([N+](=O)[O-])c2)o1)c1cccs1 | inactive: -2.3% |  |
| O=c1[nH]c(/C(Cl)=C/c2cc(Cl)ccc2O)nc2cc(Cl)ccc12 | inactive: -1.06% |  |
| O=C(CSc1nc2cc(Cl)ccc2s1)c1ccco1 | inactive: 3.79% |  |
| CCn1c(=O)c([N+](=O)[O-])c(NCc2ccco2)c2ccccc21 | inactive: 2.57% |  |

| Compound | activity change, negative = cytotoxicity | Potency |
| --- | --- | --- |
| Cc1ccc(C(=O)OCc2c(C)noc2C)cc1NC(=O)c1ccco1 | inactive: -1.28% |  |
| c1ccc(-c2noc(-c3cccnc3)n2)cc1 | inactive: 0.858% |  |
| Cc1cc(C)n2nc(/C(C#N)=C/c3ccccn3)c(C#N)c2n1 | inactive: -18.6% |  |
| O=C(CCCN1C(=O)/C(=C\c2cccc(Br)c2)SC1=S)Nc1cccnc1 | inactive: 3.74% |  |
| O=c1nc2c(-c3ccccc3F)n[nH]n2c2ccccc12 | inactive: -3.43% |  |
| COc1cc(C=C2Cc3ccccc3C2=O)cc(OC)c1OC | inactive: -0.755% |  |
| CCOC(=O)N1CCc2c(sc3c2C(=O)NC(c2ccccc2)N3)C1 (stereo not given) | inactive: -11.2% |  |
| O=C1S/C(=C\C=C\c2ccco2)C(=O)N1c1ccc(O)cc1 | inactive: -15.4% |  |
| Cc1csc2c(=O)sc(NC(=O)c3ccc(F)cc3Cl)nc12 | inactive: 4.3% |  |
| Cc1cc(C)cc(NC(=O)Nc2cccs2)c1 | inactive: 0.303% |  |
| CCOC(=O)N/N=C\C=C\c1ccco1 | inactive: 2.28% |  |
| Cc1sc2c(c1C)C(=O)NC(c1ccccc1F)N2 (stereo not given) | inactive: 5.03% |  |
| O=C(Nc1ccc(Cl)c(S(=O)(=O)N2CCOCC2)c1)c1cccs1 | inactive: -20.6% |  |
| O=C(N/N=C/c1ccsc1)c1ccc2ccccc2n1 | inactive: 5.15% |  |
| O=C1C(=Cc2ccccc2[N+](=O)[O-])Cc2ccccc21 | inactive: -13.3% |  |
| CC(=O)N1CCc2c(sc(NC(=O)CCS(=O)(=O)c3ccccc3)c2C#N)C1 | inactive: -0.748% |  |
| CC(=O)Nc1cc(-c2ccsc2)cn2c(-c3ccc(F)cc3)cnc12 | inactive: -5.25% |  |
| C=CCc1cccc(C=Nc2cc(Br)ccc2O)c1O | inactive: -22% |  |
| Cc1cccc(NC(=O)Nc2ccc(Br)cc2)n1 | inactive: 2.75% |  |
| O=c1cc(-c2ccccc2Cl)oc2c(Br)ccc(O)c12 | inactive: -1.03% |  |
| Fc1ccccc1-c1nc(-c2ccc(Cl)cc2)no1 | inactive: -0.963% |  |
| c1ccc(-c2nc3c4ccccc4ccn3c2Cc2ccsc2)cc1 | inactive: -15.8% |  |
| Clc1ccc(Br)cc1-c1nc(-c2ccncc2)no1 | inactive: 2.28% |  |
| CC(C)(C)c1csc(NC(=O)CCS(=O)(=O)c2ccc(F)cc2)n1 | inactive: 9.8% |  |

Record cards, from the list above.
`COc1ccc(COc2ccsc2C(=O)Nc2ccc(Cl)cc2)cc1` in the list: activity change, negative = cytotoxicity: inactive: -18.8%
`O=C(CSc1nccc(-c2cccs2)n1)Nc1cccc(Cl)c1` in the list: activity change, negative = cytotoxicity: inactive: 7.52%
`CCc1nc(Nc2cccc(F)c2)c2oc3ccccc3c2n1` in the list: activity change, negative = cytotoxicity: inactive: -5.98%

Next part:

| Compound | activity change, negative = cytotoxicity | Potency |
| --- | --- | --- |
| O=C(Nc1nnc(-c2ccccc2F)s1)C1CCCO1 (stereo not given) | inactive: -0.232% |  |
| Cc1cc(NC(=O)CN2CCC(O)CC2)nc2c1c(=O)oc1ccccc12 | inactive: 3.07% |  |
| O=C(Nc1nnc(-c2cccs2)s1)C1CC1 | inactive: -3.55% |  |
| Cc1sc2ncnc(Sc3nnnn3-c3ccccc3)c2c1C | inactive: -9.81% |  |
| O=C(N/N=C/C=C/c1ccco1)c1cccc([N+](=O)[O-])c1 | inactive: 6.02% |  |
| Cc1nc(NC(=O)/C=C/c2ccccc2)n[nH]1 | inactive: 5.25% |  |
| Cc1ccsc1/C=N/N=C1\C(=O)Nc2ccccc21 | inactive: -12.4% |  |
| CCCCC1C(=O)N(c2ccccc2)N(c2ccc(O)cc2)C1=O (stereo not given) | inactive: 5.09% |  |
| O=C(COc1cccnc1[N+](=O)[O-])Nc1cccc2ccccc12 | inactive: -1.49% |  |
| CC(=O)c1sc2nc(-c3cccs3)cc(C(F)(F)F)c2c1N | inactive: -2.42% |  |
| O=[N+]([O-])c1ccc(Cl)cc1C=NNc1ccccn1 | inactive: -2.4% |  |
| Cc1c(Cl)cccc1NC(=S)NC(=O)c1ccccc1 | inactive: -23.4% |  |
| Clc1ccc(/C=N/Nc2nnc(Cl)c3ccccc23)cc1 | inactive: -26.5% |  |
| O=C(CSc1nccc(-c2cccs2)n1)Nc1cccc(Cl)c1Cl | inactive: -0.107% |  |
| Oc1ccccc1Nc1nc2ccccc2n2nnnc12 | inactive: -2.36% |  |
| CSC1=NC(C)(C)C=C(/C=C/c2ccc(Cl)cc2)N1 | inactive: -20.3% |  |
| Nc1c(Cl)cc(N=Nc2ccccc2)cc1Cl | inactive: -1.01% |  |
| COc1ccc(N(CCCN2C(=O)c3cccc4cccc(c34)C2=O)C(=O)c2cccc(OC)c2)cc1 | inactive: -1.97% |  |
| O=C(N/N=C/c1ccc(Br)s1)c1cccs1 | inactive: -28.6% |  |
| O=c1c2ccccc2oc2cc(Br)ccc12 | inactive: -0.78% |  |
| COc1ccc(C)c2sc(NC(=O)CCS(=O)(=O)c3ccccc3)nc12 | inactive: 8.79% |  |
| Cc1c(CN(C)C)c2c(n1C)C(=O)c1ccc(Br)cc1-2 | inactive: 10.2% |  |
| COc1cccc(NC(=O)c2cc(Cl)nnc2Cl)c1 | inactive: -1.13% |  |
| c1ccc(N2CC3COc4ccccc4C3=N2)cc1 (stereo not given) | inactive: 4.77% |  |
